No constants are given. Whether binding was seen depends on the method and setting. Some binding calls cover weakened binding; strength is not graded here. Sequences can lack the tags named with a protein. One block for each binder: values may come before it.
How the values were obtained:
[1] = target: Fc-NKG2D.Y152A (human); experiment: BLI (Octet), ligands captured on AHC tips
[2] = target: Fc-eNKG2D5 (Y152A/Y199F) (human); experiment: BLI (Octet), ligands captured on AHC tips
[3] = target: Fc-NKG2D.Y152A (human); experiment: ELISA and Octet, monomeric His-tagged format
[4] = target: T1, murine NKG2D-Fc (murine) (UniProt O54709); experiment: competition ELISA with murine NKG2D-Fc
T1 sequence (looked up): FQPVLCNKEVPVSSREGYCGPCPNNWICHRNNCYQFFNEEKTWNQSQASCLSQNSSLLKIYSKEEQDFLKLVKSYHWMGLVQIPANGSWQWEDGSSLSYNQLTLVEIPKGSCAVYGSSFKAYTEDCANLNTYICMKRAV

- binding [1]: binds
- binding [2]: binds
B1: MICA-Fc (R&D Systems) (Fc fusion, human, UniProt Q29983 24-308, looked up, not shown: a dimerising Fc or GST)
chain: EPHSLRYNLTVLSWDGSVQSGFLTEVHLDGQPFLRCDRQKCRAKPQGQWAEDVLGNKTWDRETRDLTGNGKDLRMTLAHIKDQKEGLHSLQEIRVCEIHEDNSTRSSQHFYYDGELFLSQNLETKEWTMPQSSRAQTLAMNVRNFLKEDAMKTKTHYHAMHADCLQELRRYLKSGVVLRRTVPPMVNVTRSEASEGNITVTCRASGFYPWNITLSWRQDGVSLSHDTQQWGDVLPDGNGTYQTWVATRICQGEEQRFTCYMEHSGNHSTHPVPSGKVLVLQSHWQ

- binding [3]: binds
B2: ULBP2.S3, monomeric His-tagged (ligand, not shown: small tags and cut ends)
chain: AAEPHSLSYDITVIPKFRPGPRWCAVQGQVDEKTFLHYDCGNKTVTPVSPLGKKLNVTTAWKAQNPVLREVVDILTEQLWDIQLENYTPKEPLTLQARMSCEQKAEGHSSGSWQFSFDGQIFLLFDSEKRMWTTVHPGARKMKEKWENDKVVATKLYLWSMGDCIGWLEDFLMGMDSTLEPSAGAP

- binding [4]: binds
B3: WT α1-α2 domain (soluble wild-type MICA, titrated) (ligand, UniProt Q29983 24-204, looked up)
chain: EPHSLRYNLTVLSWDGSVQSGFLTEVHLDGQPFLRCDRQKCRAKPQGQWAEDVLGNKTWDRETRDLTGNGKDLRMTLAHIKDQKEGLHSLQEIRVCEIHEDNSTRSSQHFYYDGELFLSQNLETKEWTMPQSSRAQTLAMNVRNFLKEDAMKTKTHYHAMHADCLQELRRYLKSGVVLRRT

Source: patent publication US20200239541A1
